Our source for the binding values is article PMC6998106.

Protein sequences, listed by entry. Tags and fused reporters are not part of them.
UniProt P10275: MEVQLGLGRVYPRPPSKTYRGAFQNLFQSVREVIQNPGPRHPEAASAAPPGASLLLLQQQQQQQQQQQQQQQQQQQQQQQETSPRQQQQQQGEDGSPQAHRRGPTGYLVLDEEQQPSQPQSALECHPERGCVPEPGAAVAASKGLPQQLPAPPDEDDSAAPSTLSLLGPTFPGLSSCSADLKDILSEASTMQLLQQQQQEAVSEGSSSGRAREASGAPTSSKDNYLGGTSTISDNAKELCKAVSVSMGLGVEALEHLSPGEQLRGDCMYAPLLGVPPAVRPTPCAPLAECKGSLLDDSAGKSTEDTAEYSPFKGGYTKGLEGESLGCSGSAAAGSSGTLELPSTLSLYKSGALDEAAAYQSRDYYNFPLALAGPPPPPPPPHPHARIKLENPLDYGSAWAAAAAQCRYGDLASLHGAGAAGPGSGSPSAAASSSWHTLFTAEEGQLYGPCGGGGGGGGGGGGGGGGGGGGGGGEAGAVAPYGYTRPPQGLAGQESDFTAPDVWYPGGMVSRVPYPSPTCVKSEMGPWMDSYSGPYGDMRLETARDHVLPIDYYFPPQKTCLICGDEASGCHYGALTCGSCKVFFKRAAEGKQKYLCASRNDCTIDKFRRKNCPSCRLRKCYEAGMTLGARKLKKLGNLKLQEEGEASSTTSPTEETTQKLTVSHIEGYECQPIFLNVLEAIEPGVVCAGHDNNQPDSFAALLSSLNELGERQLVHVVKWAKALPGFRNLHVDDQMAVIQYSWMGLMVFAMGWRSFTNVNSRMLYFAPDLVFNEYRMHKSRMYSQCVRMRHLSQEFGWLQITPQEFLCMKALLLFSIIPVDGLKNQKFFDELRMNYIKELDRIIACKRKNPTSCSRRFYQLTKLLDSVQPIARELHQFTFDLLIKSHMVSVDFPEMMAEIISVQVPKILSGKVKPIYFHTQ
UniProt Q9NRC8: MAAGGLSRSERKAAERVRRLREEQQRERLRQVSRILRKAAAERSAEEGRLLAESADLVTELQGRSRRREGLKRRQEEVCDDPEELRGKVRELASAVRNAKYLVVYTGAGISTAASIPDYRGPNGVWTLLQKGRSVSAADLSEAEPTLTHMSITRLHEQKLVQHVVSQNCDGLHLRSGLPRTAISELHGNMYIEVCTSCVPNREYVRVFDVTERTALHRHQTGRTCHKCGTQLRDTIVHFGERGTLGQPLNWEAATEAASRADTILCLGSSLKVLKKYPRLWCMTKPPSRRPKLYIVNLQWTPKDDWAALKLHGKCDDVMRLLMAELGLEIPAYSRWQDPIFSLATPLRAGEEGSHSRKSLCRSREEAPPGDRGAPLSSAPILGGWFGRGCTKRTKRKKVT

One assay has as its target Myc-AR (UniProt P10275). The assay is described as follows: co-IP; tagged proteins Myc-AR and FLAG-SIRT7; precipitated with anti-myc or anti-FLAG, immunoblots; cell line not stated. A general note: A western blot detects proteins with antibodies after separation by electrophoresis.
The target of assay [1] is Sirtuin-7 (SIRT7), endogenous (human (endogenous in 22Rv1)) (UniProt Q9NRC8). Description: co-IP; endogenous proteins of 22Rv1 cells; Pierce IP lysis/wash buffer with protease inhibitors; lysates with anti-SIRT7 or anti-SMAD4 antibodies or control IgG at 4 °C overnight, magnetic beads, western blotting.
A further assay deals with FLAG-SIRT7 (UniProt Q9NRC8). The assay is described as follows: co-IP; tagged proteins Myc-AR and FLAG-SIRT7; precipitated with anti-myc or anti-FLAG, immunoblots; cell line not stated.

Results are given in words; binding and its absence hold for the method and conditions named. In cells and extracts the contact can be indirect.

For “FLAG-SIRT7 (from UniProt Q9NRC8 1-400) (enzyme)”, in the assay with Myc-AR, the binding entry is given as “no binding”.
For “Androgen receptor (AR), endogenous (from UniProt P10275 1-920)”, the binding entry in assay [1] is listed as “no binding”.
Take “Myc-AR (from UniProt P10275 1-920) (receptor)”: the binding result with FLAG-SIRT7 is given as “no binding”.
